Measured values as given in article PMC4228055.
No constants are given. Whether binding was seen depends on the method and setting. In cells and extracts the contact can be indirect. A result given as binding can be weak or reduced; the word gives no strength.

What was measured:
Test in all cases: co-IP; postnuclear membrane fractions of FLAG-tagged POUV-protein-rescued ZHBTc4 ESC lines grown in self-renewing conditions; precipitated with either E-cadherin or FLAG tag antibody, IgG control; immunoblot; conditions designed to detect interactions between membrane proteins
[1] = target: E-cadherin (mouse (endogenous in ZHBTc4 ESCs))
[2] = target: FLAG-tagged Xlpou25 (Xenopus laevis)
[3] = target: FLAG-tagged Xlpou91 (Xenopus laevis)

- binding [1]: binds
- binding [2]: binds
- binding [3]: binds
B1: p120-catenin (protein, UniProt P30999 1-938)
chain: MDDSEVESTASILASVKEQEAQFEKLTRALEEERRHVSAQLERVRVSPQDANSLMANGTLTRRHQNGRFVGDADLERQKFSDLKLNGPQDHNHLLYSTIPRMQEPGQIVETYTEEDPEGAMSVVSVETTDDGTTRRTETTVKKVVKTMTTRTVQPVPMGPDGLPVDASAVSNNYIQTLGRDFRKNGNGGPGPYVGQAGTATLPRNFHYPPDGYGRHYEDGYPGGSDNYGSLSRVTRIEERYRPSMEGYRAPSRQDVYGPQPQVRVGGSSVDLHRFHPEPYGLEDDQRSMGYDDLDYGMMSDYGTARRTGTPSDPRRRLRSYEDMIGEEVPPDQYYWAPLAQHERGSLASLDSLRKGMPPPSNWRQPELPEVIAMLGFRLDAVKSNAAAYLQHLCYRNDKVKTDVRKLKGIPILVGLLDHPKKEVHLGACGALKNISFGRDQDNKIAIKNCDGVPALVRLLRKARDMDLTEVITGTLWNLSSHDSIKMEIVDHALHALTDEVIIPHSGWEREPNEDCKPRHIEWESVLTNTAGCLRNVSSERSEARRKLRECDGLVDALIFIVQAEIGQKDSDSKLVENCVCLLRNLSYQVHREIPQAERYQEALPTVANSTGPHAASCFGAKKGKDEWFSRGKKPTEDPANDTVDFPKRTSPARGYELLFQPEVVRIYISLLKESKTPAILEASAGAIQNLCAGRWTYGRYIRSALRQEKALSAIAELLTSEHERVVKAASGALRNLAVDARNKELIGKHAIPNLVKNLPGGQQNSSWNFSEDTVVSILNTINEVIAENLEAAKKLRETQGIEKLVLINKSGNRSEKEVRAAALVLQTIWGYKELRKPLEKEGWKKSDFQVNLNNASRSQSSHSYDDSTLPLIDRNQKSDKKPDREEIPMSNMGSNTKSLDNNYSTLNERGDHNRTLDRSGDLGDMEPLKGAPLMQKI
